Results on three molecules are retold here after paper PMC6126864.

Results are given in words; binding and its absence hold for the method and conditions named. In cells and extracts the contact can be indirect. For some assays here: A result given as binding can be weak or reduced; the word gives no strength. Tags and fused reporters may be left off the sequences shown.

Common to all, as to test: co-IP; S2 cells co-transfected with the two tagged proteins; lysate (25 mM Tris pH 8, 27.5 mM NaCl, 20 mM KCl, 0.5% Nonidet P40) immunoprecipitated with anti-Myc, anti-Flag or anti-HA overnight at 4°C, protein A/G beads, washed four times with cold PBS; western blot
A general note: In western blotting, separated proteins are transferred to a membrane and probed.

Assay [1] addresses T1, Flag-Bap (β-Adaptin) (Drosophila) (UniProt Q24253).
T1 sequence: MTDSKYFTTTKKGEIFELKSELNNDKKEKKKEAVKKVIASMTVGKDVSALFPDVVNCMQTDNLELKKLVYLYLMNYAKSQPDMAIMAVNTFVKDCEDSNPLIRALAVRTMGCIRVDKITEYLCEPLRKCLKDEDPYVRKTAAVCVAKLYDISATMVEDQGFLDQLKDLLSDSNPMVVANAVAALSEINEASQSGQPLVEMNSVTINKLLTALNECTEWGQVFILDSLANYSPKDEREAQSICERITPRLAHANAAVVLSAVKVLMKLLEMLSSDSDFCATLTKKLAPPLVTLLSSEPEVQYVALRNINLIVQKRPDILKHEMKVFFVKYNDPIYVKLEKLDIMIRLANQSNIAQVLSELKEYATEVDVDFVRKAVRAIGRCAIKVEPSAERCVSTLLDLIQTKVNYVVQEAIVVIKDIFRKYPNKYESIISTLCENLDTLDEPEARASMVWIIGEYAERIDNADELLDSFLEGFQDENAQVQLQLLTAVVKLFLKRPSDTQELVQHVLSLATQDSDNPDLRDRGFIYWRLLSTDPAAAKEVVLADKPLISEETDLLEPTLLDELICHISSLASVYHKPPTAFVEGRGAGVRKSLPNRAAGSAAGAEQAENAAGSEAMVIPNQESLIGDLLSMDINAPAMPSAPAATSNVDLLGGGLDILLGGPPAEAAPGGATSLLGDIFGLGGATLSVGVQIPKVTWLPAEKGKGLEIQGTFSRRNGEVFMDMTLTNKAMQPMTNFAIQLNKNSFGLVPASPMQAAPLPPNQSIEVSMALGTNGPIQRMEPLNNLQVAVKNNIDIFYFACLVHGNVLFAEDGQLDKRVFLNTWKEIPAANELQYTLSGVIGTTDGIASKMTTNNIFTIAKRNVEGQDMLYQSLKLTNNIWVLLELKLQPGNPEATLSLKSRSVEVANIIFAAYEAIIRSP

The target of assay [2] is T2, Flag-Rab5 (Drosophila) (UniProt Q9V3I2).
T2 sequence: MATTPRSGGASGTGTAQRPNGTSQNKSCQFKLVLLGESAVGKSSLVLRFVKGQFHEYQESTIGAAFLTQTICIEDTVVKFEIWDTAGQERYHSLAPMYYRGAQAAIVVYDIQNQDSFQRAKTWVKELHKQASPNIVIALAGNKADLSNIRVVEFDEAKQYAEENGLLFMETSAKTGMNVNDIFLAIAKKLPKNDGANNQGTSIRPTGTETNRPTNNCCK

Assay [3] has as its target T3, Flag-α-Ada (α-Adaptin) (Drosophila) (UniProt P91926).
T3 sequence: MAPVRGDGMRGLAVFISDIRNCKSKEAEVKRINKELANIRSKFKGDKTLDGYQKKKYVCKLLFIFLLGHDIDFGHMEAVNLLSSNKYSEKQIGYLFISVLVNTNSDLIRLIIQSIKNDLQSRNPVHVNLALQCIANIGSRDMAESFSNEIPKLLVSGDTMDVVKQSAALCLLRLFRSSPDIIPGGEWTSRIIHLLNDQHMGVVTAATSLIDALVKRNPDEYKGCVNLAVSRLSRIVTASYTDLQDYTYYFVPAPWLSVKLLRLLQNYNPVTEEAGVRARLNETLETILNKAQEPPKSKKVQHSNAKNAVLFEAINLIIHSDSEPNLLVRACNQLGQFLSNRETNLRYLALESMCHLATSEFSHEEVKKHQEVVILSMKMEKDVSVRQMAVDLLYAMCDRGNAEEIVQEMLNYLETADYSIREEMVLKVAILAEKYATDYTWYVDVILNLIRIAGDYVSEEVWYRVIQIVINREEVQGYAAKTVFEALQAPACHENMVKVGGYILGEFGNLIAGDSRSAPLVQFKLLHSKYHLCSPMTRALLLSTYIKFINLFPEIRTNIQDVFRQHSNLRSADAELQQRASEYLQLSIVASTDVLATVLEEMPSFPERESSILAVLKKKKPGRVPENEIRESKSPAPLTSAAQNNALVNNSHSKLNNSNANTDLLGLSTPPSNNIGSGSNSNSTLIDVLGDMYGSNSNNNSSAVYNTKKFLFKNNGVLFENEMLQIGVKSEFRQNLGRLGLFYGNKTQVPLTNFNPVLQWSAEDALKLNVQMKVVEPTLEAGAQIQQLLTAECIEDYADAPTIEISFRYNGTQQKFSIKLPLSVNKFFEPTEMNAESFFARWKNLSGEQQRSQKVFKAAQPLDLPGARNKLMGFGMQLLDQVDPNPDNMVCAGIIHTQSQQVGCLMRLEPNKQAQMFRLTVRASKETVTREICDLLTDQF

Assay [4] addresses Myc-Prd1 (pruning defect 1) (Drosophila).

Take “Myc-Prd1 (pruning defect 1) (Drosophila)”: the binding result in assay [1] is on record as “binds”; in assay [2], “no binding”; in assay [3] it was “binds”.

B1: Flag-Rab5 (protein, UniProt Q9V3I2 1-219)
chain: MATTPRSGGASGTGTAQRPNGTSQNKSCQFKLVLLGESAVGKSSLVLRFVKGQFHEYQESTIGAAFLTQTICIEDTVVKFEIWDTAGQERYHSLAPMYYRGAQAAIVVYDIQNQDSFQRAKTWVKELHKQASPNIVIALAGNKADLSNIRVVEFDEAKQYAEENGLLFMETSAKTGMNVNDIFLAIAKKLPKNDGANNQGTSIRPTGTETNRPTNNCCK
In the case of B1, the binding entry in assay [4] was “no binding”.

B2: Flag-α-Ada (α-Adaptin) (protein, UniProt P91926 1-940)
chain: MAPVRGDGMRGLAVFISDIRNCKSKEAEVKRINKELANIRSKFKGDKTLDGYQKKKYVCKLLFIFLLGHDIDFGHMEAVNLLSSNKYSEKQIGYLFISVLVNTNSDLIRLIIQSIKNDLQSRNPVHVNLALQCIANIGSRDMAESFSNEIPKLLVSGDTMDVVKQSAALCLLRLFRSSPDIIPGGEWTSRIIHLLNDQHMGVVTAATSLIDALVKRNPDEYKGCVNLAVSRLSRIVTASYTDLQDYTYYFVPAPWLSVKLLRLLQNYNPVTEEAGVRARLNETLETILNKAQEPPKSKKVQHSNAKNAVLFEAINLIIHSDSEPNLLVRACNQLGQFLSNRETNLRYLALESMCHLATSEFSHEEVKKHQEVVILSMKMEKDVSVRQMAVDLLYAMCDRGNAEEIVQEMLNYLETADYSIREEMVLKVAILAEKYATDYTWYVDVILNLIRIAGDYVSEEVWYRVIQIVINREEVQGYAAKTVFEALQAPACHENMVKVGGYILGEFGNLIAGDSRSAPLVQFKLLHSKYHLCSPMTRALLLSTYIKFINLFPEIRTNIQDVFRQHSNLRSADAELQQRASEYLQLSIVASTDVLATVLEEMPSFPERESSILAVLKKKKPGRVPENEIRESKSPAPLTSAAQNNALVNNSHSKLNNSNANTDLLGLSTPPSNNIGSGSNSNSTLIDVLGDMYGSNSNNNSSAVYNTKKFLFKNNGVLFENEMLQIGVKSEFRQNLGRLGLFYGNKTQVPLTNFNPVLQWSAEDALKLNVQMKVVEPTLEAGAQIQQLLTAECIEDYADAPTIEISFRYNGTQQKFSIKLPLSVNKFFEPTEMNAESFFARWKNLSGEQQRSQKVFKAAQPLDLPGARNKLMGFGMQLLDQVDPNPDNMVCAGIIHTQSQQVGCLMRLEPNKQAQMFRLTVRASKETVTREICDLLTDQF
As for B2, the binding result in assay [4] is reported as “binds”.
